From patent publication US20210353579A1, “HIGH PENETRATION COMPOSITIONS AND USES THEREOF” (Techfields Pharma Co., Ltd., priority 2006, published 2021)

Experiments:
human skin tissue = conditions: 20 %, pH 7.4
in vivo = conditions: rat
[1] = Plasma levels after transdermal administration to hairless mice; assay type: in vivo
Method: Tested compounds (20% solution or suspension in 1 mL isopropanol) are administered transdermally to the skin of intact hairless mice. The plasma levels of the parent compounds are determined by HPLC.
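For LD50 in this document: acute toxicity in rats expressed as LD50, determined for both prodrugs and their parent compounds.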

## COc1ccc2cc([C@H](C)C(=O)O)ccc2c1 [Naproxen, naproxen, reference compound]
Human skin tissue
  In vitro penetration rate (apparent flux), parent compounds: 30 μg/cm^2/h
In vivo
  LD50: 1200 mg/kg
[1]; parent compound administered (time when taken orally)
  t, time to peak plasma level after parent compound: 2 to 4 h
[1]; parent compound administered, hairless mice
  Peak plasma concentration after parent compound: 10 mg/L
